At least one compound was matched to its structure with a doubt left.
System: 3T3-L1 white adipocytes
Test: Browning: marker mRNA by Real Time-PCR in differentiating adipocytes, basal or ISO-stimulated
Format: cell-based, Murine
Procedure: The cells were then stimulated with isoproterenol (ISO) for 6 hr. Relative mRNA expression of Uncoupling protein 1 (UCP-1), PPARγ, PPARγ co-activator 1α (PGC-1α), and PR-domain-containing 16 (PRDM16) were analyzed by semi-quantitative Real Time-PCR. Data=mean±SEM (n=3). E, Ethanol containing vehicle control for native R. R, rosiglitazone, a positive control. Letters of a-c or a′-c′ on top of the bars define differences among various forms of R under either basal or ISO-stimulated conditions, respectively. Different letters indicate significant differences among various R. *, p<0.05; **, p<0.01; ***, p<0.001 compared to their controls.
The cells were then stimulated with ISO for 6 hr. Relative mRNA expression of white marker insulin-like growth factor-binding protein 3 (IGFBP3) (FIG. 9A) and beige marker CD137 and transmembrane protein 26 (Tmem26) (FIG. 9B) were analyzed by semi-quantitative reverse transcription polymerase chain reaction (RT-PCR). Data=mean±SEM (n=3). E, Ethanol containing vehicle control for native R. R, rosiglitazone, a positive control. Letters of a-c or a′-c′ on top of the bars define differences among various forms of R under both basal and ISO-stimulated conditions, respectively. Different letters indicate significant differences among various R. *, p<0.05; **, p<0.01 compared to the controls.
Total RNA was extracted, cDNA was synthesized, and real-time PCR was performed using an ABI 7300HT instrument.
The hallmark of beige adipocytes is induced thermogenesis in response to stimuli, such as […] agonist ISO.

[1] = both basal and ISO stimulated conditions

## CN(CCOc1ccc(CC2SC(=O)NC2=O)cc1)c1ccccn1 (centres unmarked) [rosiglitazone]
Basal and/or ISO stimulated conditions
  mitochondrial biogenesis markers Tfam, Nrf, Cox4a, Uqcrh mRNA: significantly increased
Basal condition
  PPARγ mRNA: suppressed
Basal conditions
  PGC1a mRNA expression: significantly induced
  UCP1 mRNA expression: Neither rosiglitazone (Rosi) (positive control) nor any form of R significantly induced
[1]
  IGFBP3 mRNA expression compared to controls: significantly decreased
  PRDM16 mRNA expression: significantly induced
Both conditions
  CD137 mRNA expression: significantly increased
  Tmem26 mRNA expression: significantly decreased

— patent US20200368174A1, “PARTICLES FOR TARGETED DELIVERY OF ACTIVE AGENTS INTO ADIPOSE STROMAL CELLS” (Texas Tech University System, priority 2018, published 2020)
